Data published in the supplement of paper PMC10849652.
The other results are listed elsewhere or left out.

By UniProt entry, the sequences of proteins in these tests, tags left out. Where a name states a change or a piece, a line headed by the entry shows the natural chain unless it says otherwise.
UniProt P08311: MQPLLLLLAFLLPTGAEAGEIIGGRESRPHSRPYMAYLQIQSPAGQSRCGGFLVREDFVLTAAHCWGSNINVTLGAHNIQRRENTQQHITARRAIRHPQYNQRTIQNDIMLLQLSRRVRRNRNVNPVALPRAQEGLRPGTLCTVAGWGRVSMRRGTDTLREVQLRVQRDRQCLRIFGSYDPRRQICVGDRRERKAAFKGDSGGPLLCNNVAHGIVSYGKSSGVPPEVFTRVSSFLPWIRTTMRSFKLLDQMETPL
UniProt P43155: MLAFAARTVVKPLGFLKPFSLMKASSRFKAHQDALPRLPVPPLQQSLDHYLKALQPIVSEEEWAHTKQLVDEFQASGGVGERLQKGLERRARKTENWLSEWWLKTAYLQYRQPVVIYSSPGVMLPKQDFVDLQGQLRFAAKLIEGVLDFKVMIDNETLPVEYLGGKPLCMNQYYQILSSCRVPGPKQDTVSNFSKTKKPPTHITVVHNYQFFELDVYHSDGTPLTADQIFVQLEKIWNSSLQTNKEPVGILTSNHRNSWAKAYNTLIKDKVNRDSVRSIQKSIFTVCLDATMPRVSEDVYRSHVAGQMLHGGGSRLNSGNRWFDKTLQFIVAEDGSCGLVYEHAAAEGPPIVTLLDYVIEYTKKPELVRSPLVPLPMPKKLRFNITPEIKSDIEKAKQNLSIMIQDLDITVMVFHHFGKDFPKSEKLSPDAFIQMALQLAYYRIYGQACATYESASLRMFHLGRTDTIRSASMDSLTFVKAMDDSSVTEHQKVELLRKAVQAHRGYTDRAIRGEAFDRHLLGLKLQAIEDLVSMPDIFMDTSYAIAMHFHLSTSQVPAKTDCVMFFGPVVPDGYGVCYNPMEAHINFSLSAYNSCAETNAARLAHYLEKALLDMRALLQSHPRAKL
UniProt Q9NRF8: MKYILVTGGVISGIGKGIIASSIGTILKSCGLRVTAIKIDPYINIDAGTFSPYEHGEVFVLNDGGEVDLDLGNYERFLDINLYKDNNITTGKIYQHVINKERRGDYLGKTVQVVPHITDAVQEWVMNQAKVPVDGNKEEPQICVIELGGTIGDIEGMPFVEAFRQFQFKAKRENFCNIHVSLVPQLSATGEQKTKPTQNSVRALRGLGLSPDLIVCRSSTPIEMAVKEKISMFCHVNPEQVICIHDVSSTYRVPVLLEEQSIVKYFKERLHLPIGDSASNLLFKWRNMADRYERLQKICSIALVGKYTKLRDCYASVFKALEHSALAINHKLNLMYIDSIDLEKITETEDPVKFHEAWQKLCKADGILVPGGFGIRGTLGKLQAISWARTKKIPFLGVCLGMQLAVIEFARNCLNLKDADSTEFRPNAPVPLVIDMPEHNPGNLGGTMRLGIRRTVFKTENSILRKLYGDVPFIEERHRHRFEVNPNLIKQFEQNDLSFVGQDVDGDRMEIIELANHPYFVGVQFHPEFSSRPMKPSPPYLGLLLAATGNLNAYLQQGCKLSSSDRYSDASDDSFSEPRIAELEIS

Legend:
Assay in all cases: log2 fold change, soluble protein after heating vs DMSO (PISA); higher = thermal stabilisation; K562 lysate, 10 uM; active = over 0.2 and 3.5 SD of the protein, either way, in both replicates (recomputed)
[1] = compound: C#Cc1cccc(Nc2ncnc3cc(OCCOC)c(OCCOC)cc23)c1 [erlotinib]
Procedure, shortened: (§1)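 Values give the log-two fold change in thermal stability against solvent controls, from duplicates. Crude K562 extract at 1 mg/mL protein, made by dounce homogenisation in PBS pH 7.4 with 1 mM MgCl2, was treated with 10 μM compound for 30 min. After 3 min heating across 48°C-58°C, aliquots were pooled, adjusted to 0.5% NP-40 at 4°C and centrifuged at 21,000xg for 90 min. The supernatant was measured by TMTpro 16plex LC-MS/MS with channel sums equalised.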

[2] = compound: C1=CC(=CC=C1C2=NC3=C(N2)C=C(C=C3)C(=O)N)OC4=CC=C(C=C4)Cl
Procedure, shortened: as §1

[3] = compound: C1=CC=C(C=C1)C2=NC(=C(N2)C3=CC=NC=C3)C4=CC(=C(C=C4)Cl)O
Procedure, shortened: as §1

[4] = compound: C1COCCN1CCN2C3=CC=CC=C3N=C2NC(=O)C4=CC(=CC=C4)[N+](=O)[O-] [IRAK-1-4 Inhibitor I]
Procedure, shortened: as §1

[5] = compound: CC(C)(C)Cn1c(N)nc2ccc(-c3[nH]c(C(C)(C)C)nc3-c3ccc(F)cc3)nc21 [ralimetinib]
Procedure, shortened: as §1

[6] = compound: CC(C)(O)CC(=O)NCCn1ccc2ncnc(Nc3ccc(Oc4cccc(C(F)(F)F)c4)c(Cl)c3)c21
Procedure, shortened: as §1

[7] = compound: CC(C)C1=C2N=C(C=C(N2N=C1)NCC3=CC=CC=C3)NCCCCCCN
Procedure, shortened: as §1

[8] = compound: CC1=C(C(CC(=O)N1)C2=CC=C(C=C2)C(F)(F)F)C(=O)NC3=C(C=C4C(=C3)C=NN4)F
Procedure, shortened: as §1

[9] = compound: CC1=C(C2=C(C=C1)C(=O)C3=CC=CC=C3N2CCCN)C
Procedure, shortened: as §1

[10] = compound: CC1=C(C=C(C=C1)NC(=O)C2=CC(=CC=C2)C(C)(C)C#N)NC3=CC4=C(C=C3)N=CN(C4=O)C
Procedure, shortened: as §1

[11] = compound: CC1=C(C=C(C=C1)NC(=O)C2=CC(=CC=C2)N(C)C)NC(=O)C3=CC=C(C=C3)O
Procedure, shortened: as §1

[12] = compound: C/C(=N\NC(=O)C1=CC(=CC=C1)S(=O)(=O)N2CCOCC2)/C3=C(C=CC(=C3)Cl)O
Procedure, shortened: as §1

[13] = compound: C1=CC2=C(C=CC(=C2)/C=C\3/C(=O)NC(=NCC4=CC=CS4)S3)N=C1
Procedure, shortened: as §1

[14] = compound: C1=CC2=NC=CN=C2C=C1/C=C/3\C(=O)NC(=O)S3
Procedure, shortened: as §1

[15] = compound: C1=CC=C2C(=C1)C3=NNC4=CC=CC(=C43)C2=O
Procedure, shortened: as §1

[16] = compound: C=CC(=O)N1CCC[C@@H](n2nc(-c3ccc(Oc4ccccc4)cc3)c3c(N)ncnc32)C1 [ibrutinib]
Procedure, shortened: as §1

[17] = compound: CC(=O)c1cnc2ccc(-c3cc(Cl)c(O)c(Cl)c3)nc2c1N[C@H]1CC[C@H](CN(C)C)CC1
Procedure, shortened: as §1

[18] = compound: CC1=CC=C(C=C1)SC2=C3C=C(SC3=CN=C2)C(=O)N
Procedure, shortened: as §1

[19] = compound: C1CCN(C1)C(=O)NC2=CC=CC(=C2)NC3=NC=C(C(=N3)NCCC4=CN=CN4)Br
Procedure, shortened: as §1

[20] = compound: C1CN(CCC1(CC2=CC=C(C=C2)Cl)N)C3=NC=NC4=C3C=CN4
Procedure, shortened: as §1

Measured: log2 fold change

CTSG (UniProt P08311)
inactive: [1] 0.182 | [2] -0.028 | [3] 0.014 | [4] 0.123 | [5] -0.135 | [6] -0.117 | [7] 0.043 | [8] -0.006 | [9] 0.04 | [10] -0.205 | [11] -0.043

CRAT (UniProt P43155)
inactive: [1] 0.054 | [12] 0.043 | [2] 0.013 | [13] 0.03 | [14] -0.232 | [3] 0.031 | [15] -0.096 | [4] 0.017 | [16] 0.001 | [17] -0.008 | [5] 0.008 | [6] 0.012 | [7] 0.001 | [9] -0.053 | [10] -0.246 | [11] -0.039 | [18] -0.081

CTPS2 (UniProt Q9NRF8)
inactive: [1] -0.009 | [12] -0.008 | [2] -0.016 | [13] -0.01 | [14] 0.01 | [3] -0.008 | [15] 0 | [19] -0.021 | [20] -0.015 | [4] -0.006 | [16] 0.021 | [17] 0.006 | [5] 0.017 | [6] -0.026 | [7] -0.011 | [8] 0.008 | [9] -0.004 | [10] 0.009 | [11] 0.005 | [18] -0.009
